Values of other authors in US20250025444A1, “TREATMENT OF NEURODEGENERATIVE DISEASES VIA ADMINISTRATION OF BUNTANETAP AND A PHOSPHODIESTERASE INHIBITOR” (ANNOVIS BIO, INC., priority 2022, published 2025).
At least one structure is not confirmed: it was looked up by name or label, or the drawing left a doubt. Some results were stated once for a whole list of compounds, not compound by compound.

Details: cited from earlier work; for duration of effects / action: usual duration

For `COc1ccc(CN=c2[nH]c(N3CCC[C@H]3CO)ncc2C(=O)NCc2ncccn2)cc1Cl` [avanafil], the “onset of action after administration” value (in vivo) is listed as ≥ 15 min.
For `CCCc1nc(C)c2c(=O)[nH]c(-c3cc(S(=O)(=O)N4CCN(CC)CC4)ccc3OCC)nn12` [vardenafil], the “duration of effects, longest” value (oral, can last as long as) is listed as “up to 12 hours” and the “duration of effects / action” value (oral) is listed as 5 to 7 h.
For `CN1CC(=O)N2[C@H](c3ccc4c(c3)OCO4)c3[nH]c4ccccc4c3C[C@@H]2C1=O` [tadalafil], the “duration of effects / action” value (oral) is given as 36 h.
